Assay results as given in patent publication US20200354457A1.
Positions count from the first letter of the chain named. Results are given in words; binding and its absence hold for the method and conditions named. Some entries that bind do so weakly or less than the wild type.

B1: SEQ ID NO 21 (VHH)
VHH: EVQLVESGGGLVQPGGSLRLSCAASGFNIKDTYIGWVRRAPGKGEELVARIYPTNGYTRYADSVKGRFTISADTSKNTAYLQMNSLRAEDTAVYYCAKYVRYFDYWGQGTLVTVSS
B2: SEQ ID NO 23 (VHH)
VHH: EVQLVESGGGLVQPGGSLRLSCAASGFNIKDTYIGWVRRAPGKGEELVARIYPTNGYTRYADSVKGRFTISADTSKNTAYLQMNSLRAEDTAVYYCAKYYPRTYLDFDYWGQGTLVTVSS
B3: LAG3 17D7 aVH domain (VHH)
VHH: EVQLVESGGGLVQPGGSLRLSCAASGFNIKDTCIGWVRRAPGKGTELVAEICTDIGYTRYADSVKGRFTISADTSKNTAYLQMNSLRAEDTAVYYCAAGEGSSGFHYWGQGTTVTVSS
B4: LAG3 21B11 aVH domain (VHH)
VHH: B3 VHH with T53Q, G99D, G101S, S102V, S103D, G104N, H106K
B5: LAG3 P10C3 aVH domain (VHH)
VHH: B3 VHH with I55A, G99S, G101S, S102P, H106R
B6: LAG3 P11E9 aVH domain (VHH)
VHH: B3 VHH with T53H, G99E, G101H, S102V, S103A, G104S, H106E
B7: LAG3 9B4 aVH domain (VHH)
VHH: B3 VHH with T53Q, G99V, G101V, S102A, S103E, G104Y, H106E
B8: LAG3 19G3 aVH domain (VHH)
VHH: B3 VHH with D31Y, T32Q, T53S, D54Y, I55D, G99E, G101S, S102V, S103E, H106I
B9: LAG3 P11E2 aVH domain (VHH)
VHH: B3 VHH with T53D, A98S, G99Q, G101H, S102Q, S103W, G104S, H106K
B10: SEQ ID NO 27 (VHH)
VHH: EVQLVESGGGLVQPGGSLRLSCAASGFNIKDTYIGWVRRAPGKGEELVARIYPTNGYTRYADSVKGRFTISADTSKNTAYLQMNSLRAEDTAVYYCAKRSHYSYFDYWGQGTLVTVSS

Legend:
[1] = molecular target: biotinylated DR5-Fc-avi (extracellular domain of Death receptor 5, amino acids 1 to 152, fused to human IgG1 Fc with C-terminal avi-tag); experiment: ELISA, biotinylated DR5 antigen on neutravidin plates, bacterial supernatants, anti-Flag/HRP
[2] = molecular target: soluble human Lag3-IgG1-Fc with biotinylated C-terminal Avi-tag (human); experiment: ELISA, biotinylated LAG3 antigen on neutravidin plates, bacterial supernatants, anti-Flag/HRP

Binder | binding [1] | binding [2]
B1 | binds | 
B2 | binds | 
B3 |  | binds
B4 |  | binds
B5 |  | binds
B6 |  | binds
B7 |  | binds
B8 |  | binds
B9 |  | binds
B10 | binds | 
